# Data taken from patent US9554576B2, “Tetrazolinone compounds and their use as pesticides” (SUMITOMO CHEMICAL COMPANY, LIMITED, priority 2012, dated 2017).
# Some entries share one result that the patent states for a list of compounds.
# Experiments:
# Format in all cases: in vivo
# [1] = tested on: wheat rust fungi (Puccinia recondita); assay: Test Example 2: wheat rust control, foliar spray on wheat (cv Shirogane), 500 ppm; settings: 500 ppm foliar spray, inoculated 5 days after spraying, observed after 1 + 8 days
# [2] = tested on: wheat rust fungi (Puccinia recondita); assay: Test Example 8: wheat rust control, foliar spray on wheat (cv Shirogane), 200 ppm; settings: 200 ppm foliar spray, inoculated 5 days after spraying, observed after 1 + 8 days
# [3] = tested on: rice blast fungi (Magnaporthe grisea); settings: 200 ppm foliar spray; rice cv Nipponbare; contact with infected seedlings 6 days, high humidity
Structure (SMILES),lesion area in treated plants compared to the lesion area in untreated plants [1] [%],lesion area in treated plants compared to the lesion area in untreated plants [2] [%],lesion area in treated plants compared to the lesion area in untreated plants [3] [%]
"Cc1ccn(-c2ccc(OCc3c(C4CC4)cccc3-n3nnn(C)c3=O)c(C)c2)n1 [Present compound 5, 1-{3-cyclopropyl-2-[2-methyl-4-(3-methyl-pyrazol-1-yl)-phenoxymethyl]-phenyl}-4-methyl-1,4-dihydrotetrazole-5-one]",≤ 30,≤ 30,–
"Cc1cc(-c2nn(C)c(C)c2Cl)ccc1OCc1c(C2CC2)cccc1-n1nnn(C)c1=O [Present compound 36, 1-{3-cyclopropyl-2-(2-methyl-4-(4-chloro-1,5-dimethyl-1H-pyrazol-3-yl)-phenoxymethyl]-phenyl}-4-methyl-1,4-dihydrotetrazole-5-one]",–,≤ 30,≤ 30
"Cc1cc(-n2cc3c(n2)CCCC3)ccc1OCc1c(C2CC2)cccc1-n1nnn(C)c1=O [Present compound 9, 1-{3-cyclopropyl-2-[2-methyl-4-(4,5,6,7-tetrahydro-indazol-2-yl)-phenoxymethyl]-phenyl}-4-methyl-1,4-dihydrotetrazole-5-one]",–,≤ 30,–
"CCn1ccc(-c2ccc(OCc3c(C4CC4)cccc3-n3nnn(C)c3=O)c(C)c2)n1 [Present compound 13, 1-{3-cyclopropyl-2-[2-methyl-4-(1-ethyl-1H-pyrazol-3-yl)-phenoxymethyl]-phenyl}-4-methyl-1,4-dihydrotetrazole-5-one]",≤ 30,≤ 30,≤ 30
"Cc1cc(-n2nc(C)c(C)c2C)ccc1OCc1c(OC(F)F)cccc1-n1nnn(C)c1=O [Present compound 1, 1-{3-difluoromethoxy-2-[2-methyl-4-(3,4,5-trimethyl-pyrazol-1-yl)-phenoxymethyl]-phenyl}-4-methyl-1,4-dihydrotetrazole-5-one]",≤ 30,–,≤ 30
"CCOc1c(C)c(-c2ccc(OCc3c(OC(F)F)cccc3-n3nnn(C)c3=O)c(C)c2)nn1C [Present compound 43, 1-{3-difluoromethoxy-2-[2-methyl-4-(5-ethoxy-1,4-dimethyl-1H-pyrazol-3-yl)-phenoxymethyl]-phenyl}-4-methyl-1,4-dihydrotetrazole-5-one]",–,≤ 30,≤ 30
"CSc1c(C)c(-c2ccc(OCc3c(OC(F)F)cccc3-n3nnn(C)c3=O)c(C)c2)nn1C [Present compound 46, 1-{3-difluoromethoxy-2-[2-methyl-4-(1,4-dimethyl-5-methylthio-1H-pyrazol-3-yl)-phenoxymethyl]-phenyl}-4-methyl-1,4-dihydrotetrazole-5-one]",–,≤ 30,≤ 30
"COc1c(C)c(-c2ccc(OCc3c(C4CC4)cccc3-n3nnn(C)c3=O)c(C)c2)nn1C [Present compound 34, 1-{3-cyclopropyl-2-[2-methyl-4-(5-methoxy-1,4-dimethyl-1H-pyrazol-3-yl)-phenoxymethyl]-phenyl}-4-methyl-1,4-dihydrotetrazole-5-one]",–,≤ 30,≤ 30
"CSc1c(C)c(-c2ccc(OCc3c(C4CC4)cccc3-n3nnn(C)c3=O)c(C)c2)nn1C [Present compound 45, 1-{3-cyclopropyl-2-[2-methyl-4-(1,4-dimethyl-5-methylthio-1H-pyrazol-3-yl)-phenoxymethyl]-phenyl}-4-methyl-1,4-dihydrotetrazole-5-one]",–,≤ 30,≤ 30
"Cc1cc(-c2nn(C)c(Cl)c2C)ccc1OCc1c(OC(F)F)cccc1-n1nnn(C)c1=O [Present compound 44, 1-{3-difluoromethoxy-2-[2-methyl-4-(5-chloro-1,4-dimethyl-1H-pyrazol-3-yl)-phenoxymethyl]-phenyl}-4-methyl-1,4-dihydrotetrazole-5-one]",–,≤ 30,≤ 30
"Cc1cc(-c2nn(C)c(Cl)c2C)ccc1OCc1c(-n2nnn(C)c2=O)cccc1[S+](C)[O-] (stereo not drawn) [Present compound 41, 1-{2-[4-(5-chloro-1,4-dimethyl-1H-pyrazol-3-yl)-2-methyl-phenoxymethyl]-3-methanesulfinyl-phenyl}-4-methyl-1,4-dihydrotetrazole-5-one]",–,≤ 30,–
"Cc1ccn(-c2cc(C)c(OCc3c(C4CC4)cccc3-n3nnn(C)c3=O)cc2C)n1 [Present compound 21, 1-{3-cyclopropyl-2-[2,5-dimethyl-4-(3-methyl-pyrazol-1-yl)-phenoxymethyl]-phenyl}-4-methyl-1,4-dihydrotetrazole-5-one]",≤ 30,–,≤ 30
"COc1c(C)c(-c2ccc(OCc3c(OC(F)F)cccc3-n3nnn(C)c3=O)c(C)c2)nn1C [Present compound 42, 1-{3-difluoromethoxy-2-[2-methyl-4-(5-methoxy-1,4-dimethyl-1H-pyrazol-3-yl)-phenoxymethyl]-phenyl}-4-methyl-1,4-dihydrotetrazole-5-one]",–,≤ 30,≤ 30
"CCOc1c(C)c(-c2ccc(OCc3c(C4CC4)cccc3-n3nnn(C)c3=O)c(C)c2)nn1C [Present compound 37, 1-{3-cyclopropyl-2-[2-methyl-4-(5-ethoxy-1,4-dimethyl-1H-pyrazol-3-yl)-phenoxymethyl]-phenyl}-4-methyl-1,4-dihydrotetrazole-5-one]",–,≤ 30,≤ 30
"Cc1cc(C)n(-c2ccc(OCc3c(C4CC4)cccc3-n3nnn(C)c3=O)c(Cl)c2)n1 [Present compound 4, 1-{3-cyclopropyl-2-[2-chloro-4-(3,5-dimethyl-pyrazol-1-yl)-phenoxymethyl]-phenyl}-4-methyl-1,4-dihydrotetrazole-5-one]",≤ 30,≤ 30,–
"CCCCc1c(C)nn(-c2ccc(OCc3c(C4CC4)cccc3-n3nnn(C)c3=O)c(C)c2)c1C [Present compound 35, 1-{3-cyclopropyl-2-[2-methyl-4-(4-butyl-3,5-dimethyl-pyrazol-1-yl)-phenoxymethyl]-phenyl}-4-methyl-1,4-dihydrotetrazole-5-one]",–,≤ 30,–
"Cc1cc(-c2nn(C)c(Cl)c2C)ccc1OCc1c(C2CC2)cccc1-n1nnn(C)c1=O [Present compound 33, 1-{3-cyclopropyl-2-[2-methyl-4-(5-chloro-1,4-dimethyl-1H-pyrazol-3-yl)-phenoxymethyl]-phenyl}-4-methyl-1,4-dihydrotetrazole-5-one]",–,≤ 30,≤ 30
"C#Cc1cccc(-n2nnn(C)c2=O)c1COc1ccc(-n2nc(C)c(C)c2C)cc1C [Present compound 20, 1-{3-ethynyl-2-[2-methyl-4-(3,4,5-trimethyl-pyrazol-1-yl)-phenoxymethyl]-phenyl}-4-methyl-1,4-dihydrotetrazole-5-one]",–,≤ 30,≤ 30
"Cc1cc(-n2ncc(C)c2C)ccc1OCc1c(C2CC2)cccc1-n1nnn(C)c1=O [Present compound 10, 1-{3-cyclopropyl-2-[2-methyl-4-(4,5-dimethyl-pyrazol-1-yl)-phenoxymethyl]-phenyl}-4-methyl-1,4-dihydrotetrazole-5-one]",≤ 30,≤ 30,≤ 30
"COc1c(C)nn(-c2ccc(OCc3c(C4CC4)cccc3-n3nnn(C)c3=O)c(Cl)c2)c1C [Present compound 11, 1-{3-cyclopropyl-2-[2-chloro-4-(3,5-dimethyl-4-methoxy-pyrazol-1-yl)-phenoxymethyl]-phenyl}-4-methyl-1,4-dihydrotetrazole-5-one]",≤ 30,–,≤ 30
"Cc1cn(C)nc1-c1ccc(OCc2c(C3CC3)cccc2-n2nnn(C)c2=O)c(Cl)c1 [Present compound 22, 1-{3-cyclopropyl-2-[2-chloro-4-(1,4-dimethyl-1H-pyrazol-3-yl)-phenoxymethyl]-phenyl}-4-methyl-1,4-dihydrotetrazole-5-one]",≤ 30,–,–
"Cn1ccc(-c2ccc(OCc3c(C4CC4)cccc3-n3nnn(C)c3=O)c(Cl)c2)n1 [Present compound 23, 1-{3-cyclopropyl-2-[2-chloro-4-(1-methyl-1H-pyrazol-3-yl)-phenoxymethyl]-phenyl}-4-methyl-1,4-dihydrotetrazole-5-one]",≤ 30,–,–
"CCOc1c(C)c(-c2ccc(OCc3c(SC)cccc3-n3nnn(C)c3=O)c(C)c2)nn1C [Present compound 39, 1-{3-methylthio-2-[2-methyl-4-(5-ethoxy-1,4-dimethyl-1H-pyrazol-3-yl)-phenoxymethyl]-phenyl}-4-methyl-1,4-dihydrotetrazole-5-one]",–,≤ 30,–
